Measured values: PubChem BioAssay AID540275 (National Center for Advancing Translational Sciences (NCATS), 2011)
Hit rate of the full screen: of about 320,000 compounds, about 620 (0.19%) were called active. The inconclusive results got no clear call from the source; some entries with a clear call stand among them for comparison. No stated cut-off is given here; in the data, active means activation above about 80%; inconclusive means between about 30% and that limit; inactive means weaker than that.

Chains of the proteins cited; added tags and fusions are not shown.
UniProt Q8NER1, whole entry, looked up: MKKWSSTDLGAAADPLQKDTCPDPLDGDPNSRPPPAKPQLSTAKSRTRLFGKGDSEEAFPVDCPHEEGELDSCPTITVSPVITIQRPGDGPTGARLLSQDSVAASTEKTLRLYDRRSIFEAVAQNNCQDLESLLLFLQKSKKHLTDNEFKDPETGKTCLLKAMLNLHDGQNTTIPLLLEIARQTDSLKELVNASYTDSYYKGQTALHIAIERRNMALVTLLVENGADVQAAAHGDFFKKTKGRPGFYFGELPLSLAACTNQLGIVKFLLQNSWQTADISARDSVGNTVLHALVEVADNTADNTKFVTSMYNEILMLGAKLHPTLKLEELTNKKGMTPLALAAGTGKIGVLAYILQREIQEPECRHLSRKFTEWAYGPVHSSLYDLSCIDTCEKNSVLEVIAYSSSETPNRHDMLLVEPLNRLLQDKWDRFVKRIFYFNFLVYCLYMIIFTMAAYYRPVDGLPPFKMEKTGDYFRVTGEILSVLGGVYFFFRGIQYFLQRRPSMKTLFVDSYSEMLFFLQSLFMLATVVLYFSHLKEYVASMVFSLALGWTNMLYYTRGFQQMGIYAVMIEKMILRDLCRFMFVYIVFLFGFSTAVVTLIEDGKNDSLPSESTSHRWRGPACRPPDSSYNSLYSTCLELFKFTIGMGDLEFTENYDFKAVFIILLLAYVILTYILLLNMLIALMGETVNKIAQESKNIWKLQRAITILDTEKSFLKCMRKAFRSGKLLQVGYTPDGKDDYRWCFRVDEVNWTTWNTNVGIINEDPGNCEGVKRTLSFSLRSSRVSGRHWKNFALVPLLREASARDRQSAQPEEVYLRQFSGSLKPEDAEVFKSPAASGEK

biological target: Transient receptor potential cation channel subfamily V member 1 (Homo sapiens) (UniProt Q8NER1); test: HTS Assay for Compounds that Act as Agonists of the Vanilloid Receptor 1; settings: TRPV1-expressing cells, Fluo-8 calcium influx, agonist mode; at 8.33 µM, active compounds read high; further: 0% is about no effect
Excerpt: The transient receptor potential ion channel, family V, number 1, (TRPV1) is one of the most important molecular transducers of painful stimuli and a potential target for analgesic drug development. Although recent clinical trials with orthosteric antagonists have not produced a successful drug because of a hyperthermia side effect and their tendency to block thermal noxious pain, this ion channel is undeniably well placed in the pain pathway, and the idea of blocking pain signals before they enter the CNS is an excellent concept and of proven efficacy when TRPV1 agonists are used. We propose a new approach involving allosteric modulation to impose an activity-dependent constraint within the context of inflammation and tissue damage that would alter the responsiveness of the channel in a way that an orthosteric vanilloid antagonist cannot achieve. We believe that the allosteric modulator approach has not been explored for this target. The main goal of this proposal is to identify additional, new, potent allosteric modulators of TRPV1 that can be used to investigate TRPV1 function. Our recent report provides evidence of proof of concept, but the compounds are just at the edge of utility in terms of potency. […] The question of whether they can be used as analgesic agents is complex, but if suitable compounds are identified then testing for analgesic properties will be conducted. NIH Chemical Genomics Center [NCGC] NIH Molecular Libraries Probe Centers Network [MLPCN] MLPCN Grant: MH089480-1A1 Assay Submitter (PI): Michael Iadarola, National Institute of Dental and Cranofacial Research
Upon TRPV1 activation in TRPV1 cells, the channel opens and extracellular cations flow through the channel into the cytosol. A calcium binding dye (Fluo-8) becomes fluorescent when bound to calcium. This dye is pre-loaded into cells and is used as a marker for calcium influx. The amount of accumulated calcium is precisely quantified using the FDSS kinetic reader and the calcium dye. For the HTS assay, freshly prepared cells are plated at a density of 2000/well in 3 ul medium in 1536-well plates and cultured overnight at 35.5C. Cells will be loaded with 1 ul of the homogeneous calcium dye (ABD Bioquest) at room temperature for 40 to 90 minutes. Plates will be loaded into the FDSS kinetic reader and a 1 sec / cycle for 10 second baseline signal will be measured. Compound library will then be added with a pintool at 23 nl and measured kinetically for 3 minutes. This portion of the read is considered the agonist portion of the screen. Following the 3 minutes of incubation, an on board pipettor will deliver 1 ul of capsaicin for a final concentration equal to the EC20. Signal will be measured kinetically for an additional 2 minutes. This portion of the read is considered the allosteric enhancer portion of the screen. The FDSS reader has a standard filter set capable of measuring calcium bound Fluo-8 (ex=480 and em=520 nm).

Compound | activation
Cc1ccc(C2CN=NC23CCc2ccccc2C3=O)cc1 (configuration not stated) | inconclusive: 41.9%
O=C(N/N=C/c1ccc(COc2ccc(Br)cc2)o1)c1ccc2c(c1)OCO2 | inconclusive: 31%
Cc1c(N=c2scc(-c3ccccc3)n2C)c(=O)n(-c2ccccc2)n1C | inactive: 5.11%
CC1CCN(CCCNS(=O)(=O)c2cc(Br)cc3c2N(C(=O)C2CC2)CC3)CC1 | inactive: 3.5%
Cc1cc(C(=O)COC(=O)C2=COCCO2)c(C)n1-c1cccc(F)c1 | inconclusive: 45.6%
COc1ccc(/C=N/Nc2ncnc3sc4c(c23)CCCC4)cc1O | inconclusive: 44.4%
COc1ccc(C(CC(=O)NCc2ccco2)c2ccc(F)cc2)cc1 (configuration not stated) | inconclusive: 35.5%
COc1ccc(C(=O)N/N=C(\C)Cn2nc([N+](=O)[O-])cc2C)cc1 | inactive: -10.1%
CCC(C)c1ccccc1N1CC(C(=O)Nc2ccc(C)c(S(=O)(=O)N3CCOCC3)c2)CC1=O (configuration not stated) | inactive: -0.0564%
N#Cc1ccc(N2C(=O)[C@@H]3C(C(=O)c4ccc5ccccc5n4)=NN[C@@H]3C2=O)cc1 | inactive: 2.57%
O=C(COc1ccccc1F)Nc1ccc(N2CCOCC2)cc1N1CCOCC1 | inconclusive: 32.6%
CCNC(=S)NNc1nncc2ccccc12 | inconclusive: 39.6%
CCOC(=O)CSc1cc(CS(=O)c2ccc(Cl)cc2)nc(-c2ccccc2)n1 (configuration not stated) | inconclusive: 50.4%
COc1ccc(/C=N/NC(=O)CCC(=O)Nc2ccccc2)cc1OC | inactive: -1.72%
COc1ccc(OCCCC(=O)Nc2cccc(SC)c2)cc1 | inconclusive: 36.6%
CCn1c(=O)c(-c2nc3ccccc3[nH]2)c(O)c2ccccc21 | inactive: 4.6%
Cc1ccc(N2CCN(C(=O)c3cccs3)CC2)c(C)c1 | inconclusive: 48.6%
O=C(NCc1cccnc1)c1ccc(COc2cccc3ccccc23)o1 | inconclusive: 72.1%
CCn1nc(NC(=O)c2ccncc2)c2cc3ccc(C)cc3nc21 | inconclusive: 63.4%
Cc1c(C(=O)NCc2cccs2)oc2ccccc12 | inactive: -14.9%
Cc1[nH]c(C)c(C(=O)O)c1CNC1CCCCC1C (configuration not stated) | inconclusive: 38%
CCCc1ccc(OCCNC(=O)CC)cc1 | inconclusive: 39%
C/C(=N\N=C1\NC(=O)C(Cc2ccccc2)S1)c1ccccc1 (configuration not stated) | inconclusive: 32%

Compound | activation
COc1cccc(OCc2cc(C(=O)N3CCN(C4CCCC4)CC3)no2)c1 | inconclusive: 58.9%
CC(OC(=O)Cc1ccc(F)cc1)C(=O)N1CCc2ccccc21 (configuration not stated) | inactive: 16.3%
CCOc1ccc(NC(=S)NC(=O)Cc2ccccc2)cc1 | active: 86.9%
O=C(NCCC1=CCCCC1)c1ccc(Cl)c(S(=O)(=O)N2CCOCC2)c1 | active: 81.8%
CCNC(=O)OCCC12CC3CC(CC(C3)C1)C2 | inconclusive: 30.3%
O=C(NCCCN1CCc2ccccc2C1)Nc1ccc(Br)cc1 | inconclusive: 48.3%
CCSc1nc2ccccc2n1CCOc1ccccc1 | inconclusive: 31.3%
Cc1coc2c(C)c3oc(=O)c(CCC(=O)NCc4ccccn4)c(C)c3cc12 | inconclusive: 36.9%
CCn1c(=O)c2cc(C(=O)Nc3cccc(C(C)=O)c3)sc2c2ccccc21 | inconclusive: 65.4%
Cc1ccc(C2=NS(=O)(=O)N(C)C(C(=O)NCc3ccccc3)=C2)cc1 | inconclusive: 74.3%
CCc1ccc2[nH]c(=O)c(CN(CCN(CC)CC)C(=S)NCc3ccco3)cc2c1 | inconclusive: 61.1%
CC(=O)NCCn1c(SCc2ccc(C)cc2C)nc2ccccc2c1=O | inconclusive: 53.4%
N#Cc1cccc(C#N)c1Oc1ccc(S(=O)(=O)Nc2ccc(Cl)cc2)cc1 | inactive: 14.4%
N#C/C(=C\c1ccc(O)cc1)c1nc2ccccc2o1 | inconclusive: 51.2%
C=CCn1c(C)cc(C(=O)COC(=O)c2ccc3c(c2)NC(=O)CS3)c1C | inconclusive: 32.3%
CC(Sc1ccc(Cl)cc1)C(=O)Nc1ccc2c(c1)OCO2 (configuration not stated) | inconclusive: 56.7%
O=C(Nc1nc(-c2cccc3ccccc23)cs1)c1ccc2c(c1)S(=O)(=O)c1ccccc1C2=O | inactive: 2.83%
O=C(COc1coc(CN2CCN(c3ccccc3F)CC2)cc1=O)NC1CCCC1 | inactive: 0.834%
Cc1cc(=O)[nH]c(NCc2ccc(Cl)cc2)n1 | inconclusive: 57.4%
Cc1cc(N/C=C/C(=O)c2ccccc2)ccc1Br | inconclusive: 40.3%
C=CCN1N=C(/C=C/c2ccc(C)cc2)CCC1=O | inactive: 28.4%
O=C(N1CCN(c2ccc(F)cc2)CC1)C12CC3CC(CC(C3)C1)C2 | inconclusive: 31.6%
COc1cccc(C(=O)Nc2ccc3[nH]ncc3c2)c1 | inconclusive: 53.1%

Compound | activation
O=C(COC(=O)C1CC2C=CC1C2)NCCc1ccccc1 (configuration not stated) | inconclusive: 32.1%
CC(=O)c1ccc(C(=O)NC2CC(C)(C)Cc3c2cnn3-c2ccccc2)cc1 (configuration not stated) | inconclusive: 31.8%
O=S(=O)(Nc1cccc(-c2cn3cccnc3n2)c1)c1ccc(Cl)cc1 | inactive: 0.795%
O=C(Nc1ccc([N+](=O)[O-])cn1)c1ccc2c(c1)OCO2 | inconclusive: 36%
CN1CCN(C(=O)C2CCN(c3ncc(C(F)(F)F)cc3Cl)CC2)CC1 | inconclusive: 56.7%
CCCNc1nc(C)cc(-c2cc(C(=O)NCc3ccccc3)on2)n1 | inconclusive: 42%
CC(=O)c1c(C)[nH]c(C(=O)OCC(=O)NCc2ccc(Cl)cc2)c1C | inconclusive: 32.6%
COc1cccc(NC(=O)c2cccc(Cl)c2)c1 | inconclusive: 50.1%
Cc1ccnc(NC(=O)c2ccc(C(=O)c3ccccc3)cc2)c1 | inconclusive: 37.5%
Cn1c(C(=O)Nc2ccccc2)cc2sccc21 | inconclusive: 33.1%
O=C(O)c1sc2cccc(Cl)c2c1Cl | active: 82.9%
Cc1cc(NC(=O)c2ccc(Br)cc2)nc(C)n1 | inconclusive: 42.1%
O=C1CCCC/C1=C\Nc1ccc(Cl)cn1 | inconclusive: 50.3%
COc1ccc(C(=O)c2cnc3ccccc3c2-c2ccccc2)cc1 | inconclusive: 38.4%
Cc1ccc2nc3c(c(C(=O)OC4CCOC4=O)c2c1)CCCC3 (configuration not stated) | inconclusive: 33.3%
Cc1cccc(/C=C/c2onc(C)c2S(=O)(=O)N2CCC(C(=O)N3CCCCC3)CC2)c1 | inconclusive: 65.4%
c1ccc(CNc2nc(-c3ccccn3)nc3ccccc23)cc1 | inactive: 9.05%
CCC(=O)N1CCN(c2ccc(NC(=S)NC(=O)c3cccc([N+](=O)[O-])c3)cc2)CC1 | inactive: 1.5%
COc1ccc(NC(=O)c2cnc(C)cn2)c2ncccc12 | inactive: -1.33%
CC(=O)N1CCCc2cc(S(=O)(=O)N3CCCC(C(=O)N4CCN(c5ccccc5)CC4)C3)ccc21 (configuration not stated) | inactive: 2.95%
COc1ccccc1-c1nnc(NC(=O)C(C)C)s1 | inactive: -5.45%
Cc1ccc(NC(=O)c2ccccc2O)cc1 | inconclusive: 41.7%
COc1cc(C(=O)Nc2nc(-c3ccc(Cl)cc3)c(C)s2)ccc1OCC(=O)Nc1ccc(F)cc1 | inactive: 1.6%

By substructure: the entries above containing a nitro group on carbon (three)
Compound | activation
COc1ccc(C(=O)N/N=C(\C)Cn2nc([N+](=O)[O-])cc2C)cc1 | inactive: -10.1%
O=C(Nc1ccc([N+](=O)[O-])cn1)c1ccc2c(c1)OCO2 | inconclusive: 36%
CCC(=O)N1CCN(c2ccc(NC(=S)NC(=O)c3cccc([N+](=O)[O-])c3)cc2)CC1 | inactive: 1.5%

Taken from above:
Entry of O=C(COC(=O)C1CC2C=CC1C2)NCCc1ccccc1 (configuration not stated) under activation: inconclusive: 32.1%
Entry of CC(=O)N1CCCc2cc(S(=O)(=O)N3CCCC(C(=O)N4CCN(c5ccccc5)CC4)C3)ccc21 (configuration not stated) under activation: inactive: 2.95%
Entry of COc1ccccc1-c1nnc(NC(=O)C(C)C)s1 under activation: inactive: -5.45%

Continuation:

Compound | activation
O=C(/C=C/c1ccco1)Nc1ccc2c(c1)OCO2 | inconclusive: 75.4%
CCO[C@H]1OC(C(=O)N2CCN(Cc3ccccc3)CC2)=C[C@@H](c2ccccc2)[C@@H]1CCCO | inconclusive: 41.2%
O=C1/C(=C\c2cccnc2)CCc2ccccc21 | inactive: 12.2%
Cc1ccc(C2C(C(=O)c3cccs3)=C(O)C(=O)N2c2nnc(C)s2)cc1 (configuration not stated) | inconclusive: 55.1%
C=CCOC(=O)C1=C(C)NC(C)=C(C(=O)OCC=C)C1c1ccc(C)o1 | inconclusive: 40.3%
CC1CCN(C(=O)CCC(=O)Nc2nnc(C(F)(F)F)s2)CC1 | inconclusive: 32.8%
CCCOc1ccc(/C=C/C(=O)NCc2ccccc2)cc1 | inconclusive: 39.1%
O=C(CN1CCOCC1)N/N=C/c1c(O)ccc2ccccc12 | inconclusive: 39.8%
CCOC(=O)CSc1ccc(C(=O)Nc2ccc(Cl)cc2)cn1 | inconclusive: 62.3%
Cc1nn(C)cc1CN(C)C(=O)c1cc(-c2ccccc2)nc2ccc(Br)cc12 | inconclusive: 54.9%
COc1ccc(-c2cc(C)no2)cc1S(=O)(=O)N(C)c1ccc(C)cc1 | inconclusive: 42.8%
Cc1cnc(C(=O)NCCc2ccc(C(F)(F)F)cc2)cn1 | inconclusive: 33%
O=C(COc1ccc(F)cc1)Nc1nc(-c2ccccn2)cs1 | inconclusive: 40.1%
O=C(NCc1c(Cl)cccc1Oc1ccccc1)c1ccccc1 | inconclusive: 41.7%
Cc1ccc(-c2nnc(NC3CCCC3)s2)cc1 | inconclusive: 56.2%
COc1ccc2oc(C(=O)Nc3ccccn3)c(C)c2c1 | inconclusive: 43.6%
O=C(c1cccs1)N1CCN(c2cc(Cl)ccc2Cl)CC1 | inconclusive: 49.9%
COc1ccc(-c2cc(C(=O)NC3=NCCS3)c3ccccc3n2)cc1OC | inconclusive: 33.3%
O=C(Nc1cccc([N+](=O)[O-])c1)C1C2/C=C\CCCCC21 (configuration not stated) | inconclusive: 42.3%
O=C(N=Nc1c(O)[nH]c2ccc(Br)cc12)c1ccccc1-n1cccc1 | inconclusive: 34.6%
COc1ccc(/C=N/NC(=O)c2ccc(-n3cnnn3)cc2)cc1 | inconclusive: 70.2%
CCN=C(NCC)SC1CC(=O)N(c2cccc(OCC)c2)C1=O (configuration not stated) | inconclusive: 39.3%
Cc1ccccc1OCC(O)CN1CCN(c2ccc(Cl)cc2)CC1 (configuration not stated) | inactive: -3.15%
